Test results published in article PMC5833727.
These are yes or no findings as the source states them, for the method shown. In cells and extracts the contact can be indirect. Some entries that bind do so weakly or less than the wild type.

Protein sequences, listed by entry. Tags and fused reporters are not part of them. Residues count along the entry.
UniProt P25445, residues 26-335: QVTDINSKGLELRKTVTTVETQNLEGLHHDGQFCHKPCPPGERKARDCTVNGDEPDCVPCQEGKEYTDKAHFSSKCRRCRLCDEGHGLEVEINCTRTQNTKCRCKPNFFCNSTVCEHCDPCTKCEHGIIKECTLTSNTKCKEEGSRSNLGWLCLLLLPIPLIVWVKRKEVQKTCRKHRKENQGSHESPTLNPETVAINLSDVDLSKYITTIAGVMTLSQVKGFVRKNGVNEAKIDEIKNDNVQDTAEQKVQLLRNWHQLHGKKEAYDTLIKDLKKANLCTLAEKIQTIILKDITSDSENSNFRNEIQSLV
UniProt Q9Y3R4: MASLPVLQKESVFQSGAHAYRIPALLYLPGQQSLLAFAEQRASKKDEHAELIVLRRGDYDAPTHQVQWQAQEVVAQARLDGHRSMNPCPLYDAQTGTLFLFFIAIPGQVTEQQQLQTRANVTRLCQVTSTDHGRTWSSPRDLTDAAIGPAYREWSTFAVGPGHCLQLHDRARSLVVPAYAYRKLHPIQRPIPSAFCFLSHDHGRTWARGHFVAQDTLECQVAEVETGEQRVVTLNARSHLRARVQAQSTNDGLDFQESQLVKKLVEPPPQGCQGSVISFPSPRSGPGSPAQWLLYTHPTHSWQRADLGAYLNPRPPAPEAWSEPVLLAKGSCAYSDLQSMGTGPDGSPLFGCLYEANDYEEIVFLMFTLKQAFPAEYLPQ

Columns and labels:
[1] = biological target: Death receptor Fas (CD95) (human (endogenous in MIAPaCa2 and AsPC1)) (UniProt P25445); assay: co-IP; membrane fraction of mock and Neu2-transfected MIAPaCa2 and AsPC1 cells, processed as the cell lysate (anti-Fas IP, anti-Neu2 blot); rabbit IgG as negative control
[2] = biological target: Death receptor Fas (CD95) (human (endogenous in MIAPaCa2 and AsPC1)) (UniProt P25445); assay: co-IP; total cell lysate (200 ug) of mock and Neu2-transfected MIAPaCa2 and AsPC1 cells; anti-Fas antibody (1:100) overnight at 4 C, protein A-Sepharose 4B for 3 h; blot with anti-Neu2; rabbit IgG as negative control

For “cytosolic sialidase Neu2 (from UniProt Q9Y3R4 1-380) (enzyme)”, the binding [1] was “binds” and the binding [2] was “binds”.
